These are yes or no findings as the source states them, for the method shown. In cells and extracts the contact can be indirect. A yes stands for co-enrichment or nearness to the bait. Other partners may have been found.
Molecular target: Recombinant Myc- and His-tagged ArathEULS3 protein (Arabidopsis thaliana) (UniProt Q945P1)
Assay: affinity purification with mass spectrometry; 100 µg purified Myc-tagged ArathEULS3 immobilised on Myc-Trap beads; 300 µg lysate of 2-week-old A. thaliana seedlings treated with 100 µM ABA for 5 h added for 1 h at 4 °C; washed with 10 mM Tris-HCl pH 7.5, 150 mM NaCl, 0.5 mM EDTA; LC-MS/MS of three replicates, compared with empty beads; only the target purified

By UniProt entry, the sequences of proteins in these tests, tags left out. Where a name states a change or a piece, a line headed by the entry shows the natural chain unless it says otherwise. Residues count along the entry.
UniProt Q945P1: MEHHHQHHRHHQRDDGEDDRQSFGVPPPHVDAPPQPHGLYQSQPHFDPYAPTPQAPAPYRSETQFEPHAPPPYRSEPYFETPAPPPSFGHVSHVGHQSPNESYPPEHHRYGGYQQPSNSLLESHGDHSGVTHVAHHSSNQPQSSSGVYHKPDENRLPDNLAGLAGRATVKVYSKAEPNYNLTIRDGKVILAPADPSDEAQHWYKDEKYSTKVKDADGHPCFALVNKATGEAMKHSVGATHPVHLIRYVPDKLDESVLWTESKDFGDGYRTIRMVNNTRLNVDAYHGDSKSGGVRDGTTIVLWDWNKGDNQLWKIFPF
UniProt P56808: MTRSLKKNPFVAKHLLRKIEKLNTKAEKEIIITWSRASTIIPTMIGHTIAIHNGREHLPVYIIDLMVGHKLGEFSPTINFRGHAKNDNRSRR
UniProt Q9SUQ9: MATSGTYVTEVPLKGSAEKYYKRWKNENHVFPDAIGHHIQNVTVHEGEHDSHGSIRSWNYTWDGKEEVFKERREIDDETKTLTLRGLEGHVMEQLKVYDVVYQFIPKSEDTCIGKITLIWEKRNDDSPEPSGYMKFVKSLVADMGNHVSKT
UniProt P0DH99: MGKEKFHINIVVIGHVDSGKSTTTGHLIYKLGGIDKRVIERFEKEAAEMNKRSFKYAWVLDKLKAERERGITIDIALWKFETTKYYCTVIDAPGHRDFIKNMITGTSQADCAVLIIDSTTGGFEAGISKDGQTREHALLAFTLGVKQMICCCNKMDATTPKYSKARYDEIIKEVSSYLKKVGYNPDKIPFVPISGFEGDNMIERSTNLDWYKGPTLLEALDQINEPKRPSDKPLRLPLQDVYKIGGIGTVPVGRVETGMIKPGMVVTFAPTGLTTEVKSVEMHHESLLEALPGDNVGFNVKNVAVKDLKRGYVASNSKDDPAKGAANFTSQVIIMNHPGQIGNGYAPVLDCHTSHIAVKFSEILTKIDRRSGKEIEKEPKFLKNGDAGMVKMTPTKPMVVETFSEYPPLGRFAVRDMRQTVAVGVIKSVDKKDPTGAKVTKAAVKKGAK
UniProt O65719: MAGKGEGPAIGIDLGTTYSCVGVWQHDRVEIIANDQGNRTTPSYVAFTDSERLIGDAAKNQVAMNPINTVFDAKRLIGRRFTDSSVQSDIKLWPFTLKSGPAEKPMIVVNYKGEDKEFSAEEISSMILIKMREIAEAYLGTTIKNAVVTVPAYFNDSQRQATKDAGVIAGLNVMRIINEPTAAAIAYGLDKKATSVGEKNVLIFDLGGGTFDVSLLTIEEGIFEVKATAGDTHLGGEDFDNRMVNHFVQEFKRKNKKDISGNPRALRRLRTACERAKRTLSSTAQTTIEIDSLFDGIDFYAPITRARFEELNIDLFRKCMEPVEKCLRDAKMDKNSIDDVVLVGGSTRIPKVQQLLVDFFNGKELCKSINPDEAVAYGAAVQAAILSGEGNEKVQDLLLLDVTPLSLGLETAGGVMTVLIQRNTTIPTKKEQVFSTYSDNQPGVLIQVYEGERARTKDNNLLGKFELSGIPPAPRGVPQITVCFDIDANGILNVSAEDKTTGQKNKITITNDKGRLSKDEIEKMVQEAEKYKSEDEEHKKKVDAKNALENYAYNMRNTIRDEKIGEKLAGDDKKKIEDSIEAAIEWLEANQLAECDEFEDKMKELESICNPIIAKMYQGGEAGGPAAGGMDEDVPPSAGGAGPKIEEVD
UniProt P43297, residues 137-352: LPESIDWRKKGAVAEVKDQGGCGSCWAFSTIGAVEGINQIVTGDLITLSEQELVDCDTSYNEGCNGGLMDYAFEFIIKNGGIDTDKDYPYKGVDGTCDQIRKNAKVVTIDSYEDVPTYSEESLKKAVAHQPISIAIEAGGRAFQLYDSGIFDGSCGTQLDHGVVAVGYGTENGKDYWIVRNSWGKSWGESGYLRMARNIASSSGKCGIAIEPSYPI
UniProt O23255: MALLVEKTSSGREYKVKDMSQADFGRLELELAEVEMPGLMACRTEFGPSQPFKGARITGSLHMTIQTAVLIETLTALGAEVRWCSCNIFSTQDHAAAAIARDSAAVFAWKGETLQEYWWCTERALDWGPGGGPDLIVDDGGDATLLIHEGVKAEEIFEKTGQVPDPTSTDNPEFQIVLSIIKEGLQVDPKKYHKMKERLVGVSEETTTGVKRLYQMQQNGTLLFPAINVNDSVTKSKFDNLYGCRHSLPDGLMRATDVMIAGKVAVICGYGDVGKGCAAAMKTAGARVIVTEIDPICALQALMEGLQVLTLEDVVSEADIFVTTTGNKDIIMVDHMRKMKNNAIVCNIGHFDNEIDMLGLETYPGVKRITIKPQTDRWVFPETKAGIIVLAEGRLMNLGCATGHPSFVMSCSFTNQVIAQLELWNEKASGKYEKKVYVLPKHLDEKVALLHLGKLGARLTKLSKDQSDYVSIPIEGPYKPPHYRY
UniProt F4J8D3: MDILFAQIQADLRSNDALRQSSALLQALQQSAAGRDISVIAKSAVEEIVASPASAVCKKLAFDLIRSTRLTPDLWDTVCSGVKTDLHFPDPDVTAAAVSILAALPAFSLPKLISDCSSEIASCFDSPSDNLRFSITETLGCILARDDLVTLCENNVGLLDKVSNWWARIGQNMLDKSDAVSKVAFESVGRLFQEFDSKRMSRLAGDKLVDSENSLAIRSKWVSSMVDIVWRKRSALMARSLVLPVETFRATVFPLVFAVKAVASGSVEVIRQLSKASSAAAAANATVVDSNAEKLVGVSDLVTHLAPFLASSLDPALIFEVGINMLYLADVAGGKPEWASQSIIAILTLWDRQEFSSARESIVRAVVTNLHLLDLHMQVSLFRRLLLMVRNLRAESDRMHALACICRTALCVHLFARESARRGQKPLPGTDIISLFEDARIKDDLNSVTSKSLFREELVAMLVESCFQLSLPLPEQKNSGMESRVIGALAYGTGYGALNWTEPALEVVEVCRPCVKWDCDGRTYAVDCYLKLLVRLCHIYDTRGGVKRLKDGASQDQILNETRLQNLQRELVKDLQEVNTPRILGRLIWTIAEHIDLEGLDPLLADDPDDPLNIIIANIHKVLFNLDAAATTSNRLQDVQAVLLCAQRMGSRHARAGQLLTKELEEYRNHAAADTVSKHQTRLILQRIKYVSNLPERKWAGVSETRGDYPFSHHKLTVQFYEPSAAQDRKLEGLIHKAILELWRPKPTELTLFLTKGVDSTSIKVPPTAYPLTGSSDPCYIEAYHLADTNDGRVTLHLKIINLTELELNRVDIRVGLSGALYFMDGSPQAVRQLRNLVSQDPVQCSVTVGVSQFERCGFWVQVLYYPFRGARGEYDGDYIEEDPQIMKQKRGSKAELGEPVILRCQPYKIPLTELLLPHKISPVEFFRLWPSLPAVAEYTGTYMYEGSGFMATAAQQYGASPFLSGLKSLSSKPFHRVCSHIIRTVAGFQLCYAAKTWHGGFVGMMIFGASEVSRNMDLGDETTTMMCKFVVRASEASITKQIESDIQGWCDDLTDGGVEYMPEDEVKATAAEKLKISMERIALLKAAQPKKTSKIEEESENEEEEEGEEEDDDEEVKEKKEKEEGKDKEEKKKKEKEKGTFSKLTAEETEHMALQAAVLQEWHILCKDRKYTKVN

Row | Substance | binding
1 | 30S ribosomal protein S19 (from UniProt P56808 1-92) | binds
2 | At4g23680 (from UniProt Q9SUQ9) | binds
3 | Elongation factor 1-alpha 1/2/3 (from UniProt P0DH99 1-449) | binds

Now from value to substance:

Row | binding | Substance
4 | binds | Heat shock 70 kDa protein 3 (from UniProt O65719 1-649)
5 | binds | Cysteine proteinase (from UniProt P43297 137-352) (enzyme)
6 | binds | Adenosyl homocysteinase (from UniProt O23255 1-485) (enzyme)
7 | binds | Protein TPLATE (from UniProt F4J8D3 1-1176)
